{"source": "patent US6503920B1", "about": "“Cabergoline and pramipexole: new uses and combinations” (Pharmacia & Upjohn Company, priority 1998, dated 2003)", "origin": "cited, not measured here", "test_system": "PSP patients", "conditions": "small number of patients, double blind crossover", "note": "At least one structure is not confirmed: it was looked up by name or label, or the drawing left a doubt.", "data": [{"smiles": "CNC(=O)Oc1ccc2c(c1)[C@]1(C)CCN(C)[C@@H]1N2C", "note": "[physostigmine]", "values": [{"measurement": "improvement in parkinsonian, extraocular or pseudobulbar symptoms", "result": "did not show any improvement"}]}]}
